Measured values taken from PMC1976419.
Results are given in words; binding and its absence hold for the method and conditions named. Binding seen in cells or lysates may run through a third protein. For part of these data: Binding can be weak; no strength is given. Sequences can lack the tags named with a protein.

Legend:
Experiment in all cases: co-IP; 25 mg crude lysate of yeast strains with a C-terminally TAP-tagged SAGA component and Flag-Spt7, purified on IgG agarose; bound protein separated by 5% SDS-PAGE, Flag-Spt7 forms detected with anti-Flag antibody
[1] = target: T1, C-terminally TAP-tagged Spt8 (S. cerevisiae) (UniProt P38915)
T1 sequence: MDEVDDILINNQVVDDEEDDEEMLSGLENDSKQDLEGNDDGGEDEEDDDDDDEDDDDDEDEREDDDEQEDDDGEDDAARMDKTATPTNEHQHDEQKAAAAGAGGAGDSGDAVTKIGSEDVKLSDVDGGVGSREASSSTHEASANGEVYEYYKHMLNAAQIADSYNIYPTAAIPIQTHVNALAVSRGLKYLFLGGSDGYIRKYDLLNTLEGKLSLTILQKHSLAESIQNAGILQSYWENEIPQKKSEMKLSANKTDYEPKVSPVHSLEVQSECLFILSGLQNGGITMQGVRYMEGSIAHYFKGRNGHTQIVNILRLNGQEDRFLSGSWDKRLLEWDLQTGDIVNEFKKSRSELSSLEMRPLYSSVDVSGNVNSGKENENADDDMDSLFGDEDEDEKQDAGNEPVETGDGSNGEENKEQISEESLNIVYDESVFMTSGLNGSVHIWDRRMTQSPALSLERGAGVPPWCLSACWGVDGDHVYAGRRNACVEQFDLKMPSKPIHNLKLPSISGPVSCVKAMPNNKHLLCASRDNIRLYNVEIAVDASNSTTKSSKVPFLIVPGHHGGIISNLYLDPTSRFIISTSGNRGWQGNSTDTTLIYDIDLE

[2] = target: T2, C-terminally TAP-tagged Ada2 (S. cerevisiae) (UniProt Q02336)
T2 sequence: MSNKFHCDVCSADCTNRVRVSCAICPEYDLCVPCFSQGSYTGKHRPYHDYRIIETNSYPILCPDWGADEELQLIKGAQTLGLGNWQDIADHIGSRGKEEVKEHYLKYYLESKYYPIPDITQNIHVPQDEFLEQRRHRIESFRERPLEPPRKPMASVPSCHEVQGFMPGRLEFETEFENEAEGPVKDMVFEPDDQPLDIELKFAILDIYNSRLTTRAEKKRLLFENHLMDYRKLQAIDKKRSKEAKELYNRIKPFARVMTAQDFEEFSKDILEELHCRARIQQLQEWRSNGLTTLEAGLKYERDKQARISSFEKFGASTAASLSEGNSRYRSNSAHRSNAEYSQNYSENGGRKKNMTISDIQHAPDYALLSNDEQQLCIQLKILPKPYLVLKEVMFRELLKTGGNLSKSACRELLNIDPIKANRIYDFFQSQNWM

[3] = target: T3, C-terminally TAP-tagged Ubp8 (S. cerevisiae) (UniProt P50102)
T3 sequence: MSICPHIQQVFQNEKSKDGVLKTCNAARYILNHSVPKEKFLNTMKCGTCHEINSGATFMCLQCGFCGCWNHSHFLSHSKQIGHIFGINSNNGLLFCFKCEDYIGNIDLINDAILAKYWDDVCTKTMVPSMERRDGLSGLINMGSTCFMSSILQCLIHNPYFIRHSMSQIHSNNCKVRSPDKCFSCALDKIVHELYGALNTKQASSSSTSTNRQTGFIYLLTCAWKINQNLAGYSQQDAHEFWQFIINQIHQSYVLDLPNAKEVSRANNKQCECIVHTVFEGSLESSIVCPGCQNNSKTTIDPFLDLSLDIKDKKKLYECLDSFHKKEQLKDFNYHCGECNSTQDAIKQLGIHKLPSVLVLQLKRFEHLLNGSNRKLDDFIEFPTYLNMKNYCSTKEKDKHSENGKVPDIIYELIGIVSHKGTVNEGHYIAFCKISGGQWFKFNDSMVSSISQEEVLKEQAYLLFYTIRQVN

[4] = target: T4, C-terminally TAP-tagged Taf5 (S. cerevisiae) (UniProt P38129)
T4 sequence: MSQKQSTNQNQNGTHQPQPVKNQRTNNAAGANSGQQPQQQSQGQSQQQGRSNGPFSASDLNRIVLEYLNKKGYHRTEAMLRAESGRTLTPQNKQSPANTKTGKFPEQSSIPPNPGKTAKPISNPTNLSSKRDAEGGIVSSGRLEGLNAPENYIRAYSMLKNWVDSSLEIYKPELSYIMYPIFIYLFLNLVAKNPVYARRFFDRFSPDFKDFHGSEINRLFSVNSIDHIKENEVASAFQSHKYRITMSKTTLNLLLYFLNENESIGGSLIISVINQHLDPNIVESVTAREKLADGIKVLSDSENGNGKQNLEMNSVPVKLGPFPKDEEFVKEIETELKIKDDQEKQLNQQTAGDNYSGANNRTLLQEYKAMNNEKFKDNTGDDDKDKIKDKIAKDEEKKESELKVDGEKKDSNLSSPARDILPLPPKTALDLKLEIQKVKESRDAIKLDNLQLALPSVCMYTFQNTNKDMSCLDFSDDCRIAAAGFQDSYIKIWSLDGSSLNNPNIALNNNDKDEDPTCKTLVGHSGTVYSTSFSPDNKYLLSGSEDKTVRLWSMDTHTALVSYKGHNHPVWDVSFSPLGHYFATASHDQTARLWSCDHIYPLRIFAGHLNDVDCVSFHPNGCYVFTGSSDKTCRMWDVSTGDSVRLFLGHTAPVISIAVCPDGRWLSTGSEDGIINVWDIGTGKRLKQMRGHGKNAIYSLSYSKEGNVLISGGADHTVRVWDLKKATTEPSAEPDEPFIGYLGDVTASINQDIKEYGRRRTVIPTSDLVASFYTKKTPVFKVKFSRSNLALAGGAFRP

[5] = target: T5, C-terminally TAP-tagged Spt3 (S. cerevisiae) (UniProt P06844)
T5 sequence: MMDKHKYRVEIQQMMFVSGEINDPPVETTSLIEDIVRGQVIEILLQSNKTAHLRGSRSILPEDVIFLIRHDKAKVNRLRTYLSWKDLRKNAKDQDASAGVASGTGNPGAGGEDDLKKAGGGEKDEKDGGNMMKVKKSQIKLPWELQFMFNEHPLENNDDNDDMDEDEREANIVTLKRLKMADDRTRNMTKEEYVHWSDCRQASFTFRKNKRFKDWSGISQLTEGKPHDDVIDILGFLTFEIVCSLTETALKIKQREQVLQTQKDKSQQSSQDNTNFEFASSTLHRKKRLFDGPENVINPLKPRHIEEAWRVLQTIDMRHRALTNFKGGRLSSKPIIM

## Flag-Spt7, C-terminally truncated SLIK form (Spt7SLIK) (S. cerevisiae) (domain or fragment)
[1]
  binding: no binding
[2]
  binding: binds
[3]
  binding: binds
[4]
  binding: binds
[5]
  binding: binds

## Flag-Spt7, third C-terminally processed form (Spt7Form3) (S. cerevisiae) (domain or fragment)
[1]
  binding: no binding
